Results deposited as PubChem BioAssay AID1224830 (NIAID, 2016).

Purpose: 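Host factors that control LPS-induced TNF expression in human macrophages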 (primary screen)
Cells: human THP-1 monocytic leukaemia cells, TNF dual-luciferase reporter clone, PMA-differentiated to macrophage-like cells
Reagent: siRNA pool against human genes, 50 nM
Timing: LPS for 4 h, given about 3 days after siRNA transfection
Challenge: bacterial LPS (TLR4 ligand), 10 ng/ml
Read-out: 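Ratio of firefly to renilla light, scaled to the plate median and expressed as a robust z-score per replicate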
Reading the numbers: TNF reporter robust z-score: higher = stronger TNF reporter response to LPS
Rule for the call: 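Each well counts as active if its z-score is over 2.8 or under -1.5; controls are left without a call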
Here is an unselected part of about 18,000 deposited reagents. About 2,900 of all reagents (16%) were called active. 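Calls are made per well; low scores hint the gene aids the LPS response, high scores that it dampens it.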 Repeated entries: four replicate wells of each siRNA pool.

gene symbol	TNF reporter robust z-score	call
SNIP1 (Smad nuclear interacting protein 1)	0.53	inactive
SNIP1 (Smad nuclear interacting protein 1)	0.09	inactive
SNIP1 (Smad nuclear interacting protein 1)	1.11	inactive
SNIP1 (Smad nuclear interacting protein 1)	-0.05	inactive
UNC80 (unc-80 subunit of NALCN channel complex)	0.92	inactive
UNC80 (unc-80 subunit of NALCN channel complex)	2.88	active
UNC80 (unc-80 subunit of NALCN channel complex)	1.55	inactive
UNC80 (unc-80 subunit of NALCN channel complex)	1.35	inactive
SFPQ (splicing factor proline and glutamine rich)	-1.43	inactive
SFPQ (splicing factor proline and glutamine rich)	-0.67	inactive
SFPQ (splicing factor proline and glutamine rich)	-1.12	inactive
SFPQ (splicing factor proline and glutamine rich)	-1.13	inactive
SPHK2 (sphingosine kinase 2)	-0.38	inactive
SPHK2 (sphingosine kinase 2)	-0.44	inactive
SPHK2 (sphingosine kinase 2)	-0.1	inactive
SPHK2 (sphingosine kinase 2)	-0.2	inactive
IL38 (interleukin 38)	-1.64	active
IL38 (interleukin 38)	-0.97	inactive
IL38 (interleukin 38)	-0.28	inactive
IL38 (interleukin 38)	0.08	inactive

Entries above whose target name starts with I or i:
gene symbol	TNF reporter robust z-score	call
IL38 (interleukin 38)	-1.64	active
IL38 (interleukin 38)	-0.97	inactive
IL38 (interleukin 38)	-0.28	inactive
IL38 (interleukin 38)	0.08	inactive

Additional results:
gene symbol	TNF reporter robust z-score	call
CFAP20DC (CFAP20 domain containing)	-0.33	inactive
CFAP20DC (CFAP20 domain containing)	0.73	inactive
CFAP20DC (CFAP20 domain containing)	0.65	inactive
CFAP20DC (CFAP20 domain containing)	-1.16	inactive
XKR8 (XK related 8)	-0.55	inactive
XKR8 (XK related 8)	0.01	inactive
XKR8 (XK related 8)	0	inactive
TTI1 (TELO2 interacting protein 1)	0.31	inactive
TTI1 (TELO2 interacting protein 1)	1.57	inactive
TTI1 (TELO2 interacting protein 1)	-0.71	inactive
TTI1 (TELO2 interacting protein 1)	2.9	active
FGB (fibrinogen beta chain)	-0.51	inactive
FGB (fibrinogen beta chain)	0.07	inactive
FGB (fibrinogen beta chain)	-0.24	inactive
FGB (fibrinogen beta chain)	-0.73	inactive
POU2F2 (POU class 2 homeobox 2)	-0.85	inactive
POU2F2 (POU class 2 homeobox 2)	-0.41	inactive
POU2F2 (POU class 2 homeobox 2)	-1.84	active
POU2F2 (POU class 2 homeobox 2)	-0.29	inactive
HTRA4 (HtrA serine peptidase 4)	-1.12	inactive
HTRA4 (HtrA serine peptidase 4)	-1.02	inactive
HTRA4 (HtrA serine peptidase 4)	-0.45	inactive
HTRA4 (HtrA serine peptidase 4)	0.8	inactive
CDY2B (chromodomain Y-linked 2B)	0.12	inactive
CDY2B (chromodomain Y-linked 2B)	0.06	inactive
CDY2B (chromodomain Y-linked 2B)	-1.3	inactive
CDY2B (chromodomain Y-linked 2B)	-1.28	inactive
